# Results published in the supplement of paper PMC7666118.
# By UniProt entry, the sequences of proteins in these tests, tags left out. Where a name states a change or a piece, a line headed by the entry shows the natural chain unless it says otherwise.
# UniProt P30740: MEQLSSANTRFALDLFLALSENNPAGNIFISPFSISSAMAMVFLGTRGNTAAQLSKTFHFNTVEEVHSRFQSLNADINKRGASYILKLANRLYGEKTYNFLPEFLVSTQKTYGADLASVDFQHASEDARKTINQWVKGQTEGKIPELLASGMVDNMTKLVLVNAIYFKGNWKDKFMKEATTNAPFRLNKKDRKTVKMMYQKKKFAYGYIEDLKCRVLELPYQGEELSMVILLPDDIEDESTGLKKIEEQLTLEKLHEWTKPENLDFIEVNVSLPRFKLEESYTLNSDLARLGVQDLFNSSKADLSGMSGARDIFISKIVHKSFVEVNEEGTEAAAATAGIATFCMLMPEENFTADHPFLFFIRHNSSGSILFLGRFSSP
# UniProt Q9Y6M5: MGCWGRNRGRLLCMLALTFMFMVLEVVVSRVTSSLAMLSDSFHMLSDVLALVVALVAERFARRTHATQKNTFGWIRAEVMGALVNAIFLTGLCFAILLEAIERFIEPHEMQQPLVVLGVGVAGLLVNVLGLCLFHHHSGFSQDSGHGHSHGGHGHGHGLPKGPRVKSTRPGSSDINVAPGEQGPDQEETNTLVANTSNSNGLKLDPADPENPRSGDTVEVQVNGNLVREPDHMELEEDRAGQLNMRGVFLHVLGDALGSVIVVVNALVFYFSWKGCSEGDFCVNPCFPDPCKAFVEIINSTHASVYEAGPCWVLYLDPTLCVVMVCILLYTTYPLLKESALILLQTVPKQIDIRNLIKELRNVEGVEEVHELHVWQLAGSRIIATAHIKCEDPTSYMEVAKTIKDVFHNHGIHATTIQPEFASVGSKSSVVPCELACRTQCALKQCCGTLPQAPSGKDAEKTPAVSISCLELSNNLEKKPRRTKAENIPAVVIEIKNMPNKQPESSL
# UniProt Q15637: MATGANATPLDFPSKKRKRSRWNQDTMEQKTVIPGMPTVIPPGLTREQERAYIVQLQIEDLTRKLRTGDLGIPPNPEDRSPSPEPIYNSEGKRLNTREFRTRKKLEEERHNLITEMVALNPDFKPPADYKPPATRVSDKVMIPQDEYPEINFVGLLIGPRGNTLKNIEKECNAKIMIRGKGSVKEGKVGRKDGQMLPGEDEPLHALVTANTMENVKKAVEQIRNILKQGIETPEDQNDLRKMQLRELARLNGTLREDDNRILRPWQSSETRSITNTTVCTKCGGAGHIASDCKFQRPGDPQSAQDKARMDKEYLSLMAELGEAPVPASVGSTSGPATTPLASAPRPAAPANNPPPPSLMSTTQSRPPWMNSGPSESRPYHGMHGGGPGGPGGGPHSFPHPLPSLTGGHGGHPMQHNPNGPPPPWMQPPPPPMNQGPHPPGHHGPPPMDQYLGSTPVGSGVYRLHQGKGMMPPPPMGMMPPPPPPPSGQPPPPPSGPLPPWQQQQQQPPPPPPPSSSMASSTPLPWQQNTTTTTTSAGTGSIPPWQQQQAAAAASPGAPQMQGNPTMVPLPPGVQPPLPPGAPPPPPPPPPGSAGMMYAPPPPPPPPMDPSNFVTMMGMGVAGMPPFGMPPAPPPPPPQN
# UniProt P55011: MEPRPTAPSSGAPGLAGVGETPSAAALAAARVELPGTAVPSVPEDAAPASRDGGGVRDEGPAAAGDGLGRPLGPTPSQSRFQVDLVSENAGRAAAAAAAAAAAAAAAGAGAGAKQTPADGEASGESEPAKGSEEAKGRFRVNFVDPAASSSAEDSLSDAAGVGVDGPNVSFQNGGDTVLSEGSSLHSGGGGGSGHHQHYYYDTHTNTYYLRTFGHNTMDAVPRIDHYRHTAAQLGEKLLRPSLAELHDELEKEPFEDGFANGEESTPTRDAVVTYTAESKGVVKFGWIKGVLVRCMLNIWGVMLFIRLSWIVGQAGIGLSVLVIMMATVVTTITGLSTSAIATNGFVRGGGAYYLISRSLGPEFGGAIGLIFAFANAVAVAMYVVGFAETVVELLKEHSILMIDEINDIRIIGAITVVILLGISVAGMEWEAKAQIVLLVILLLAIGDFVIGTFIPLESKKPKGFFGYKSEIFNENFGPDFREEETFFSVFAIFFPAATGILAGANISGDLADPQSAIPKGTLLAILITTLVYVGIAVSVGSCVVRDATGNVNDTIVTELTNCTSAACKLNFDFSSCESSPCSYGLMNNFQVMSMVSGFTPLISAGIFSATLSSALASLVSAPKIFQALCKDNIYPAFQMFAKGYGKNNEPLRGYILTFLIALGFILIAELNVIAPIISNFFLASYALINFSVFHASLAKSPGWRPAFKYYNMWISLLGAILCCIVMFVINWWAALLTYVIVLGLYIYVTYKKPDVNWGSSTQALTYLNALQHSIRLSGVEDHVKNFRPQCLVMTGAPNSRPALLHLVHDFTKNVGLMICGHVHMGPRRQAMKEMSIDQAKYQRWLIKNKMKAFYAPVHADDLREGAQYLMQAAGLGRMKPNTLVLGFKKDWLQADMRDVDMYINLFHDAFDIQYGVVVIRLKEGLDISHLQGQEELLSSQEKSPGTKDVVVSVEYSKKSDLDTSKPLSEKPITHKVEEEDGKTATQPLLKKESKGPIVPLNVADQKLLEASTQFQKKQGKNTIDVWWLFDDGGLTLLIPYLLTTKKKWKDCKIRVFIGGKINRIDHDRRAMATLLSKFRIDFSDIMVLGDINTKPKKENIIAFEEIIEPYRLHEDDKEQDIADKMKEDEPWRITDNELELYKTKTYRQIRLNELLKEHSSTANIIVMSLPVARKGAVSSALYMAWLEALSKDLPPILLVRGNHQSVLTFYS
# UniProt Q13247: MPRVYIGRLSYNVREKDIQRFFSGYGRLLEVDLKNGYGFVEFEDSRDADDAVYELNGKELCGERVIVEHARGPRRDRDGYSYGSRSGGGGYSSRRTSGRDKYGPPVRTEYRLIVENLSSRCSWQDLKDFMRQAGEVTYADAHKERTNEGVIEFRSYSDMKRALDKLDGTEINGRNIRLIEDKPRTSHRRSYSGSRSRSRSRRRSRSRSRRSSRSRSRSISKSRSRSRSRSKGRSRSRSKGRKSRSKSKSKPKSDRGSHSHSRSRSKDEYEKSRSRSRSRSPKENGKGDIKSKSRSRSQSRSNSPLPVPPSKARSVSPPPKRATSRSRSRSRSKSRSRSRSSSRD
# UniProt Q96EB6: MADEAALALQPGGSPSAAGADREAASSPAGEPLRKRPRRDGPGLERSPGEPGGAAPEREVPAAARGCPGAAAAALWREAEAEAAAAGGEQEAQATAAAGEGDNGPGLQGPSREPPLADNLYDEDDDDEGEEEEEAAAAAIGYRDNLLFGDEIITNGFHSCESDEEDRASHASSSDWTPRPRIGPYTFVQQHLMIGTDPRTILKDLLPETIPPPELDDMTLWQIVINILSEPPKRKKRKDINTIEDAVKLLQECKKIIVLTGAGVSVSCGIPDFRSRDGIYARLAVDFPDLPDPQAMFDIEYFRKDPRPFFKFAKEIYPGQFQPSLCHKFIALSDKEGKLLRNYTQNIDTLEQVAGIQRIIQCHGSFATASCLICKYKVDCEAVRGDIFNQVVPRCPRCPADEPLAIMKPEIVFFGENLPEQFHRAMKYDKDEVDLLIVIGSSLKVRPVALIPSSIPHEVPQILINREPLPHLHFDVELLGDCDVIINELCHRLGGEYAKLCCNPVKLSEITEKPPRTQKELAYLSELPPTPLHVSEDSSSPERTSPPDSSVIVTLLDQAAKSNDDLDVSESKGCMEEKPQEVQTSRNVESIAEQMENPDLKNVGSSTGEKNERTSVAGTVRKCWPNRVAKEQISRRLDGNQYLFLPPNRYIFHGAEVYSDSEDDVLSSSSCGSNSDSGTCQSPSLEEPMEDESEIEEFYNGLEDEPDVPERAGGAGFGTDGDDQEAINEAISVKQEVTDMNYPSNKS
# UniProt Q15428: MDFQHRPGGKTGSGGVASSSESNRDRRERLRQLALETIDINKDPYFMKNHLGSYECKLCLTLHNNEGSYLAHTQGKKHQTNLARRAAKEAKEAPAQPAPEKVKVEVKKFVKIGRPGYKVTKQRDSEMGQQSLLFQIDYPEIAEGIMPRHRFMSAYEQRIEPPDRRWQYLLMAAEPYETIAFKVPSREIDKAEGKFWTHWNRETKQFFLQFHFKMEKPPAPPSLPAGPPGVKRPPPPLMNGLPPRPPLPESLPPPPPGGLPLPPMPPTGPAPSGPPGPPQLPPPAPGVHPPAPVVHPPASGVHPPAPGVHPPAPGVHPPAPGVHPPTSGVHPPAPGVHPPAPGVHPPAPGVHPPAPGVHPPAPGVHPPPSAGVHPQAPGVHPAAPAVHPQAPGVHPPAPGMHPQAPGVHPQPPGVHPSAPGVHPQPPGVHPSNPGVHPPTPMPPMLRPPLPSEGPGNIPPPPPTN
# UniProt Q5SVS4: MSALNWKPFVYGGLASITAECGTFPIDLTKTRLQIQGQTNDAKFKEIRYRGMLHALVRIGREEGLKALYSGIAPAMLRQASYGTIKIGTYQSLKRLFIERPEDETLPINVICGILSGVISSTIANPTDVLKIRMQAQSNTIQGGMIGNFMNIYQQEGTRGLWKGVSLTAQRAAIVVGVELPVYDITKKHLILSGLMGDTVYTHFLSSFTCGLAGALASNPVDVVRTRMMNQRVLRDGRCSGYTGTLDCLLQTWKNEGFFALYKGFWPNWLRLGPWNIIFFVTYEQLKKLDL
# UniProt Q15427: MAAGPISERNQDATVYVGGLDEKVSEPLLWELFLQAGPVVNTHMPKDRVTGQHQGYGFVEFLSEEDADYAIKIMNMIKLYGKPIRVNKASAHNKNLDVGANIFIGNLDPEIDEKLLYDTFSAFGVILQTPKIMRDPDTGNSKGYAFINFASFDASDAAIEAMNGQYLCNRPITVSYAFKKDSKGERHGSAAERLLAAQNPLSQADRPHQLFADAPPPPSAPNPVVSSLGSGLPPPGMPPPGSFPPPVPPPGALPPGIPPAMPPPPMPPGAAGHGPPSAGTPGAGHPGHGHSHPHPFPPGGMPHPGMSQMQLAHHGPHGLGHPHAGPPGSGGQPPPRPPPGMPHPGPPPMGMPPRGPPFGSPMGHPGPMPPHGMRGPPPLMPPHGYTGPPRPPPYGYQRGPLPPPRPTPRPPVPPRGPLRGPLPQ
# UniProt Q9UGK8: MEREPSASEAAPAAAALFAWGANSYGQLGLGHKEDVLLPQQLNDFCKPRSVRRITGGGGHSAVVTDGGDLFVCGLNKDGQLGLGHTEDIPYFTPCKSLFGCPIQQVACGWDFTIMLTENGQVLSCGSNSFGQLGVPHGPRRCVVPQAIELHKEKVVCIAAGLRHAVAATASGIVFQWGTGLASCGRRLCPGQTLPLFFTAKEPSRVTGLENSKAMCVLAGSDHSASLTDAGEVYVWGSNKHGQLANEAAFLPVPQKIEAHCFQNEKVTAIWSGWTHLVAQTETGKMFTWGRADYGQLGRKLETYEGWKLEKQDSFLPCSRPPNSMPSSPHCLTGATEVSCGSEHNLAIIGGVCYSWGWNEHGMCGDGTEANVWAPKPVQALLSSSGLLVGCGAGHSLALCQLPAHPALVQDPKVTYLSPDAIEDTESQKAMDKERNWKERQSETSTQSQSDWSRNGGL
# UniProt Q96A46: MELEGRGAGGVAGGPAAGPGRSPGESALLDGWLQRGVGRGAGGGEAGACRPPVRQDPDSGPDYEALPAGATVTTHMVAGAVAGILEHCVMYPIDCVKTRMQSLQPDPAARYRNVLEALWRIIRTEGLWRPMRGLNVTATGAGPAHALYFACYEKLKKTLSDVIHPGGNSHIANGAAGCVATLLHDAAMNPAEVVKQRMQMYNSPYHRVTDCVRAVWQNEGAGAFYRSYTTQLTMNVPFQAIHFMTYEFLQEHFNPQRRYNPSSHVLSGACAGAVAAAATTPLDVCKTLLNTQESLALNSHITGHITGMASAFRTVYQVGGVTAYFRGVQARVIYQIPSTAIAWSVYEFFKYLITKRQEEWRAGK
# UniProt Q8N1S5: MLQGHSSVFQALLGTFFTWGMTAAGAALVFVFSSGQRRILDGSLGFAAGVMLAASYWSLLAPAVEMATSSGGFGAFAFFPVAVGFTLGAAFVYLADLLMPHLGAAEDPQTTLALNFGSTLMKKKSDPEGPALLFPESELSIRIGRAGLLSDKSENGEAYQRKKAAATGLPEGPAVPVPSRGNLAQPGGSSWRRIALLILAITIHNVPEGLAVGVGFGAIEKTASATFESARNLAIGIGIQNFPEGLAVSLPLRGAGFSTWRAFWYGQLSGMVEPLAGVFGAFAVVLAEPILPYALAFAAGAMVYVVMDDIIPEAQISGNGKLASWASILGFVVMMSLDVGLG
# UniProt Q96H78: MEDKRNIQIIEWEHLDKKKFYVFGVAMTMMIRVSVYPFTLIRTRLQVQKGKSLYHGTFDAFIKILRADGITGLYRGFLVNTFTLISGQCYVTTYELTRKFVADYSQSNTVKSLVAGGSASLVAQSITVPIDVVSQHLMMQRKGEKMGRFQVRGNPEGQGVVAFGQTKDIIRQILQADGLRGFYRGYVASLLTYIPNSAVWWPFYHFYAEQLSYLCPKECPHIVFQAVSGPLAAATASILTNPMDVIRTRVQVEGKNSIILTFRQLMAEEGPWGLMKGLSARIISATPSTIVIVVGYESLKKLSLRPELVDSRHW
# Some of the results follow.
# Compound: COc1ccc(Cn2ccc3ccc(C(=O)NO)cc32)cc1
# Assay: dose-dependent thermal stabilisation call (2D-TPP, DLPTP, 10% FDR) (binary (1 = stabilised)); higher = stabilised by the compound
# Settings: system: HL-60 intact cells; concentration range 0.04-10 µM
row,Target,dose-dependent thermal stabilisation call
1,SERPINB1 (UniProt P30740),inactive: 0
2,SLC30A1 (UniProt Q9Y6M5),inactive: 0
3,SF1 (UniProt Q15637),inactive: 0
4,SCAMP2 (UniProt O15127),inactive: 0
5,SLC12A2 (UniProt P55011),inactive: 0
6,SET (UniProt Q01105),active: 1
7,SLC25A36 (UniProt Q96CQ1),inactive: 0
8,SIPA1 (UniProt Q96FS4),inactive: 0
9,SFRS6 (UniProt Q13247),inactive: 0
10,SIRT1 (UniProt Q96EB6),inactive: 0
11,SLC29A3 (UniProt Q9BZD2),inactive: 0
12,SF3A2 (UniProt Q15428),inactive: 0
13,SBDS (UniProt Q9Y3A5),inactive: 0
14,SEC24C (UniProt P53992),inactive: 0
15,SDAD1 (UniProt Q9NVU7),inactive: 0
16,SLC25A30 (UniProt Q5SVS4),inactive: 0
17,SATB1 (UniProt Q01826),inactive: 0
18,SF3B4 (UniProt Q15427),inactive: 0
19,SHMT2 (UniProt P34897),inactive: 0

row,Target,dose-dependent thermal stabilisation call
1,SCYL1 (UniProt Q96KG9),inactive: 0
2,SERGEF (UniProt Q9UGK8),inactive: 0
3,SLC27A1 (UniProt Q6PCB7),inactive: 0
4,SFXN4 (UniProt Q6P4A7),inactive: 0
5,SLC25A28 (UniProt Q96A46),inactive: 0
6,SCYL3 (UniProt Q8IZE3),active: 1
7,SLC39A11 (UniProt Q8N1S5),inactive: 0
8,SLC1A4 (UniProt P43007),inactive: 0
9,SAV1 (UniProt Q9H4B6),inactive: 0
10,SLC39A6 (UniProt Q13433),inactive: 0
11,SLC29A2 (UniProt Q14542),inactive: 0
12,SLC16A1 (UniProt P53985),inactive: 0
13,SCRIB,inactive: 0
14,SEPN1 (UniProt Q9NZV5),inactive: 0
15,SLC25A44 (UniProt Q96H78),inactive: 0
16,SCFD1 (UniProt Q8WVM8),inactive: 0
17,SFXN1 (UniProt Q9H9B4),active: 1
18,SH3GLB2 (UniProt Q9NR46),inactive: 0

# Pulled one by one from the list above (2):
row,Target,dose-dependent thermal stabilisation call
12,SLC16A1 (UniProt P53985),inactive: 0
10,SLC39A6 (UniProt Q13433),inactive: 0
